Measured data: PubChem BioAssay AID602196 (INSERM, 2012)
Here is an unselected part of about 23,000 deposited reagents. Of all reagents, 455 (2%) got an active call. 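Active includes both protection and sensitisation; some change values fall well beyond the stated -50 to +50 range.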 The numbers tell different reagents against one gene apart. Not all columns of the deposit are shown. Not given: the amount of reagent.

- Assay: 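Knock-downs that protect lung cancer cells from cisplatin or sensitise them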
- Cell system: human A549 lung cancer cells
- Knock-down reagent: siRNA pair against human genes
- Duration: 48 h transfection before cisplatin; time from cisplatin to read-out not stated
- Challenge: cisplatin at a dose killing half of control-siRNA cells; exact dose and duration not given
- Read-out: 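Shift in cisplatin death relative to control siRNA, from -50 (all cells die) to +50 (no cells die); siRNAs harmful on their own scored 0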
- Reading the numbers: two-siRNA summed score (-2 to +2): higher = both siRNAs protect from cisplatin killing; -2 means both sensitise
- Call rule: 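siRNAs harmful alone (LDH or WST-1) get 0; others get +1 for less and -1 for more cisplatin killing; genes are active when the two siRNAs give the same sign, summing to ±2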
- Calls: active = both siRNAs shift cisplatin killing the same way; inactive = no consistent shift, or siRNA harmful alone

two-siRNA summed score (-2 to +2), by target and reagent
CBX7: #1 1 inactive
DNAJC4: #1 0 inactive
DNAJA1: #1 -1 inactive
SH3BP5: #1 0 inactive; #2 0 inactive
LOC442574: #1 0 inactive
MIR99AHG: #1 0 inactive
FAM217B: #1 0 inactive
LOC440948: #1 1 inactive
MYL6: #1 0 inactive
HPRT1: #1 0 inactive
ABHD8: #1 0 inactive
AKAP8L: #1 0 inactive
FGL2: #1 0 inactive
PEX5L: #1 0 inactive
ALG9: #1 0 inactive
MISO1: #1 1 inactive
SPEF1: #1 0 inactive
LOC339903: #1 1 inactive
LOC388965: #1 0 inactive
ZNF239: #1 0 inactive
LOC283530: #1 0 inactive
CST9L: #1 0 inactive

3 of these entries, set out differently:
CBX7
- two-siRNA summed score (-2 to +2): 1
- outcome: inactive

DNAJC4
- two-siRNA summed score (-2 to +2): 0
- outcome: inactive

DNAJA1
- two-siRNA summed score (-2 to +2): -1
- outcome: inactive
